Measured values: article PMC7819943, “Rice protein-binding microarrays: a tool to detect cis-acting elements near promoter regions in rice”
This is one part of the list.

The chains behind the UniProt entries cited, without tags or fusion partners.
UniProt Q0JBA9, entry or part of it: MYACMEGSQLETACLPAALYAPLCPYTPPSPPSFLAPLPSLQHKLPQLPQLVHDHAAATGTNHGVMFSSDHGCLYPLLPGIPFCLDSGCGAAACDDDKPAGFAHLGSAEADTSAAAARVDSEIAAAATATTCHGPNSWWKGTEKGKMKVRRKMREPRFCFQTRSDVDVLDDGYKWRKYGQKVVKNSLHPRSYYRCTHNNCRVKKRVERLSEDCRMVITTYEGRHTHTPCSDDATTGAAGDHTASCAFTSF

What follows are sequences tested against OsWRKY34 (Oryza sativa, UniProt Q0JBA9 1-250) (assay: protein-binding microarray (RPBM); PBS, 2% BSA, 51.3 ng/ul salmon testes DNA, 50 uM zinc acetate, 200 nM TF, 25 C, 1 h; high values mean tight binding). Conditions: protein: recombinant; tags: N-terminal polyhistidine and DsRed monomer fusion (pET32a); label: CyDye5-dUTP incorporated in the synthesized complementary strand; 3' TTTTT single-stranded linker to array surface; dsDNA, one strand shown.
Procedure, shortened: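 For the binding signal, per-feature fluorescence intensity was read in arbitrary units on an Axon 4000B scanner. Before scanning, a 2% BSA-blocked custom Agilent array made double-stranded with Cy5-dUTP was washed after 1 h at 25 °C with 200 nM protein and 50 µM zinc acetate. The proteins were Ni–NTA-purified transcription factors with N-terminal polyhistidine and DsRed fusions, expressed in E. coli BL21-CodonPlus.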
In the case of “TTGCTGTCTCTGCTTCGTTGCTGCCATCCTATCTTAAGTCCGGAGTCACCTAGTGCAG”, the binding signal is reported as 8960 fluorescence intensity (a.u.).
“TCAGGTTATAAGACGTTTTGACTTTGGCCAAAGTCAAACTCGGAGTCACCTAGTGCAG” was tested, and the binding signal was 9340 fluorescence intensity (a.u.).
For “AAAAGTTCTTCAGAGTTGGTCGATCAATCTCTCTTTATTTCGGAGTCACCTAGTGCAG”, the binding signal was 8700 fluorescence intensity (a.u.).
In the case of “GCTTCGACGTGTCCGTGCCACGTGCCGTCCCTCCATTCGCCGGAGTCACCTAGTGCAG”, the binding signal is reported as 8530 fluorescence intensity (a.u.).
For “GAGTGCCATTGAATCCTTCTGTTGCGTTGACCACCAAATGCGGAGTCACCTAGTGCAG”, the binding signal was 16500 fluorescence intensity (a.u.).
For “GGAGGGAGGGAGTATCAATCATTTGAAGAGTTCAGTGACACGGAGTCACCTAGTGCAG”, the binding signal was 8430 fluorescence intensity (a.u.).
In the case of “CCGCCGGCGGCGTCGACCTCACCCCGGCCGCCGCGCGGCGCGGAGTCACCTAGTGCAG”, the binding signal is reported as 9490 fluorescence intensity (a.u.).
With “GTGTTGCGATGGATGGTTACAGAGAGTGAGAAGAGTTGACCGGAGTCACCTAGTGCAG” the binding signal was 8920 fluorescence intensity (a.u.).
“GCGCCGTCCCTTCGGGCCCACAAGCCGTCCACCCACTTCCCGGAGTCACCTAGTGCAG” was tested, and the binding signal was 11300 fluorescence intensity (a.u.).
With “TATACTACTGAAAATTGGCTCTTTCCTTATATGCCATTGACGGAGTCACCTAGTGCAG” the binding signal was 9200 fluorescence intensity (a.u.).
In the case of “TCCCTTTTGAGTACCACTGCTGATATCTGGATGCCCGTCACGGAGTCACCTAGTGCAG”, the binding signal is reported as 8080 fluorescence intensity (a.u.).
In the case of “ACCCGCACGCCCTCGCCGCCATGTCGTCCGCCACCGCCGCCGGAGTCACCTAGTGCAG”, the binding signal is reported as 8230 fluorescence intensity (a.u.).
With “CCACACCCTTCGTCTCCATCACTCATCCCCAAATCCAACCCGGAGTCACCTAGTGCAG” the binding signal was 8100 fluorescence intensity (a.u.).
With “TATTGTGTACTACATCTTTTATTATTTCTTTCAAATTTCACGGAGTCACCTAGTGCAG” the binding signal was 10500 fluorescence intensity (a.u.).
“TCGTACTGCCCAATAATCTGTCTATTTGAATATCATGTCCCGGAGTCACCTAGTGCAG” was tested, and the binding signal was 9260 fluorescence intensity (a.u.).
In the case of “ATACAATTAATGCATGATCCCACCTATCATACACACATTACGGAGTCACCTAGTGCAG”, the binding signal is reported as 8080 fluorescence intensity (a.u.).
In the case of “GAAACCCATGGTTGGGCGGGTTATCCTCTTGCTCTTGCCTCGGAGTCACCTAGTGCAG”, the binding signal is reported as 10100 fluorescence intensity (a.u.).
In the case of “TACACTCAGAAAATGTCTACATGTCATCTGCACCTCTCCACGGAGTCACCTAGTGCAG”, the binding signal is reported as 8040 fluorescence intensity (a.u.).
With “TATGAAGTTGATTTTGTGGATTTTTTCATCGTGATTTATTCGGAGTCACCTAGTGCAG” the binding signal was 8890 fluorescence intensity (a.u.).
For “GTCTTCGTCCTATGTGGTAGTCTCAGCTCCTCAAACTAGTCGGAGTCACCTAGTGCAG”, the binding signal was 8760 fluorescence intensity (a.u.).
With “CACCGCTCCCCGCCGGCCGTTGTCCGTCTCTCTCGCCGCACGGAGTCACCTAGTGCAG” the binding signal was 8200 fluorescence intensity (a.u.).
“TGTTTTTTTTGCCTTTTACTGTATCTATCAAATTTTAATTCGGAGTCACCTAGTGCAG” was tested, and the binding signal was 8970 fluorescence intensity (a.u.).
For “ATTTTTCCATGCAATTTTAGCTGTCTTTATCAAAGCTAATCGGAGTCACCTAGTGCAG”, the binding signal was 10300 fluorescence intensity (a.u.).
“GGGCCCCAGTCAGGGTGCGGGGCCACGGAGGGGTCGGGGACGGAGTCACCTAGTGCAG” was tested, and the binding signal was 9260 fluorescence intensity (a.u.).
In the case of “AAATTAACATGGGTGCTTAGCTGTGTTGTTCGCTTGCATTCGGAGTCACCTAGTGCAG”, the binding signal is reported as 8710 fluorescence intensity (a.u.).
For “AAACTGCCTTTGCTTCCATCGCCAACTAACTTAACCATTTCGGAGTCACCTAGTGCAG”, the binding signal was 9340 fluorescence intensity (a.u.).
In the case of “GCCTGGATCCGGGTGCGTTTTTCTTTTTTTTCGCCATTTCCGGAGTCACCTAGTGCAG”, the binding signal is reported as 13600 fluorescence intensity (a.u.).
With “CTTAGCTGTTCTTGTGTAAGTACAATCATTGTTCTCCTCACGGAGTCACCTAGTGCAG” the binding signal was 9970 fluorescence intensity (a.u.).
For “AGTTTTGATTGTTTTGAATACCTGGACTCTCTCACTATATCGGAGTCACCTAGTGCAG”, the binding signal was 9440 fluorescence intensity (a.u.).
With “CCCCGATGGGCGCCGCCGCCACCCCGTTCCTCCGGAGCTCCGGAGTCACCTAGTGCAG” the binding signal was 10400 fluorescence intensity (a.u.).
With “GTCCAACACCACACCACACTCCCGCACCCACATGTCTCGCCGGAGTCACCTAGTGCAG” the binding signal was 8600 fluorescence intensity (a.u.).
With “ACATATTTGCCTCGTTTTTGAATTCCTTGGAGATAGCTTACGGAGTCACCTAGTGCAG” the binding signal was 8150 fluorescence intensity (a.u.).
In the case of “GAATTCATAAGTATGTGTGTGTGTTTGTGTGGACAAGATTCGGAGTCACCTAGTGCAG”, the binding signal is reported as 9850 fluorescence intensity (a.u.).
With “ATATAAAAAAATCATTACGCTCATTTTTTTTCTCTTATATCGGAGTCACCTAGTGCAG” the binding signal was 8650 fluorescence intensity (a.u.).
In the case of “TCCGTCCTCGTCAAGTCGTCACGGTCCTCACGGCTTTTTCCGGAGTCACCTAGTGCAG”, the binding signal is reported as 12900 fluorescence intensity (a.u.).
In the case of “CGTCCGCCCGAAGCCACCGCCACACCGGCCGCCTCTTCCTCGGAGTCACCTAGTGCAG”, the binding signal is reported as 11200 fluorescence intensity (a.u.).
For “CTGTATGTTACATCCTCATTTTTATCGGTCAAGATCATCCCGGAGTCACCTAGTGCAG”, the binding signal was 10200 fluorescence intensity (a.u.).
With “TTTTCCGTGTTTTCCGTTTCTGTTTGTTTGGCTTTTTTTTCGGAGTCACCTAGTGCAG” the binding signal was 18600 fluorescence intensity (a.u.).
For “CCCCTACGCAGCCGTCGCCGTGCCTTCCTCGTCCTCCACCCGGAGTCACCTAGTGCAG”, the binding signal was 10600 fluorescence intensity (a.u.).
With “ACTGACATGTGGGCCCAATAATTTATTTTCATTATTTTACCGGAGTCACCTAGTGCAG” the binding signal was 8310 fluorescence intensity (a.u.).
“ACACACACTTTACAGGTTTACAGCCCAACTTATCCGTGCACGGAGTCACCTAGTGCAG” was tested, and the binding signal was 9890 fluorescence intensity (a.u.).
For “GGTAGTACTATGGCAGAGTTATTTTCAGTCTTTCATTTTTCGGAGTCACCTAGTGCAG”, the binding signal was 11900 fluorescence intensity (a.u.).
